Consider 2 molecules from patent CN115819578A.

Chains of the proteins cited; added tags and fusions are not shown. Residues count along the entry.
UniProt P05113, residues 20-134: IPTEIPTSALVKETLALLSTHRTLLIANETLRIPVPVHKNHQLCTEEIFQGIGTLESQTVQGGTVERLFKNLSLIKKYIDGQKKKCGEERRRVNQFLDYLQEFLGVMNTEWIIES

No constants are given. Whether binding was seen depends on the method and setting. Some results given as binding are weak or reduced against the parent protein; the word gives no strength.

For experiment [1], the target named is 重组人IL-5蛋白 (recombinant Human IL-5, R&D Systems 205-IL-005) (human) (UniProt P05113). Kind of experiment: BLI (Gator) pairing assay, after 16D2 had bound IL-5.
Experiment [2] has the same target. Put plainly: sandwich ELISA, 16D2 capture, 24A10-biotin detection, human IL-5 100 pg/mL. A general note: In an ELISA, binding on a coated surface is turned into a signal by an enzyme label.
For experiment [3] the target is unchanged. Put plainly: BLI (Gator) pairing assay, His-tag recombinant human IL-5 5 μg/mL.

B1: 兔单克隆抗体24A10 (anti-human IL-5 rabbit monoclonal antibody 24A10) (antibody, V domains shown)
VH: QSLEESGGGLVQPEGSLTLTCTASGFSFSSSYYMCWVRQAPGKGLEWIGCIAAGSSGISYYASWAKGRFTISKTSSTTVTLQMTGLTAADTATYLCSRSCDIYSDGGTSFDLWGPGTLVTVSS
VL: DVVMTQTPASVSEPVGGTVTIKCQASQSISSYLAWYQQKPGQPPKLLIYEASKLASGVPSRFKGSGSGTEFTLTISDLECADAATYYCESNYDITSSYFGGGTEVVVKG
Turning to B1, the binding entry in experiment [1] and in experiment [2] was “binds” in each case.

B2: 兔单克隆抗体16D2 (anti-human IL-5 rabbit monoclonal antibody 16D2) (antibody, V domains shown)
VH: QEQLEESGGDLVKPEGSLTLTCTASGFSFSINYWICWVRQAPGKGLEWIACIYGGSSGSAYYATWAKGRFTISKTSSTTVTLQMTSLTAADTATYFCARDDEGGGIFYNLWGPGTLVTVSS
VL: AYDMTQTPSSASEPVGGTVTIKCQASEDIYNLLAWYQQKPGQPPKLLIYSASTLASGVPSRFKGSGSGTEYTLTISDLECADAATYYCEQHYTPSNVHNTFGGGTEVVVKG
On to B2, for which the binding result in experiment [2] and in experiment [3] was “binds” each time.
